{
  "source": "patent US20080318908A1",
  "about": "“USE OF GABA AND GABAB AGONISTS” (TRUSTEES OF TUFTS COLLEGE, priority 2002, published 2008)",
  "test_system": "islets",
  "experiment": "Islet total DNA content, Cyquant fluorescence assay",
  "assay_type": "cell-based, rat",
  "conditions": "isolated islets with GABA, FIG. 4A; 100 μM antagonist or antibody 1:1000",
  "procedure": "To examine the potential function of GABAB receptor signaling in islet tissue, islets were enzymatically isolated from exocrine pancreas and studied in vitro. Islets were size-selected for these studies because of our observation that small islets (<150 μm diameter) express GABAB receptors more abundantly. Islets (equivalent to ˜10,000 cells per well of a 96 well culture plate) were incubated for 45 minutes with (or without) 100 μM GABA, washed once with growth medium M199, maintained for 4 hours at 37° C., and subsequently analyzed for total DNA content using a Cyquant (Molecular Probes) fluorescence assay. […] Large islets, by contrast, were much less responsive to GABA; increasing only by 15±4.5% in the same time period. The growth-promoting effect of GABA was mimicked by the selective GABAB receptor agonist, S-baclofen and inhibited with either 2OH-saclofen (a selective inhibitor of GABAB receptors) or the N-terminal antibody to the GABAB receptor (FIG. 4A).\nTo further evaluate the interactions between glucose and GABAB receptor activation, we measured GABA-mediated proliferation over a range of glucose concentrations.",
  "note": "At least one structure is not confirmed: it was looked up by name or label, or the drawing left a doubt.",
  "data": [
    {"smiles": "CN1CCc2cc3c(cc2[C@H]1[C@@H]1OC(=O)c2c1ccc1c2OCO1)OCO3", "note": "[bicuculline, reference compound]", "values": [
      {"measurement": "effect on growth-promoting effect of GABA", "value": "without effect"}
    ]}
  ]
}
